These results are taken from article PMC9910009.

By UniProt entry, the sequences of proteins in these tests, tags left out.
UniProt P02340: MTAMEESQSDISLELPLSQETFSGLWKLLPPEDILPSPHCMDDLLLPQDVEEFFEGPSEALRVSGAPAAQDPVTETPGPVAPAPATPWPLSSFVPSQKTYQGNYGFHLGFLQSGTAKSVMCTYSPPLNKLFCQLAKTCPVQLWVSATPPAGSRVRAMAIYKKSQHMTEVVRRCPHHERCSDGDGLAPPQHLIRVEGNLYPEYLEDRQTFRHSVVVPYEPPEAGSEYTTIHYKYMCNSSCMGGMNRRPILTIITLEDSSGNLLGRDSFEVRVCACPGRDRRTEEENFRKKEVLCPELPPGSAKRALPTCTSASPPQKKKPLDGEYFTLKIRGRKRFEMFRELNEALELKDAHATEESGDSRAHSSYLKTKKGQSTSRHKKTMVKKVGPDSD

Results are given in words; binding and its absence hold for the method and conditions named. In cells and extracts the contact can be indirect. Some binding calls cover weakened binding; strength is not graded here.

The target of assay [1] is T1, promyelocytic leukemia protein (PML) (mouse (endogenous in neonatal mouse cardiac fibroblasts)) (UniProt Q60953).
T1 sequence: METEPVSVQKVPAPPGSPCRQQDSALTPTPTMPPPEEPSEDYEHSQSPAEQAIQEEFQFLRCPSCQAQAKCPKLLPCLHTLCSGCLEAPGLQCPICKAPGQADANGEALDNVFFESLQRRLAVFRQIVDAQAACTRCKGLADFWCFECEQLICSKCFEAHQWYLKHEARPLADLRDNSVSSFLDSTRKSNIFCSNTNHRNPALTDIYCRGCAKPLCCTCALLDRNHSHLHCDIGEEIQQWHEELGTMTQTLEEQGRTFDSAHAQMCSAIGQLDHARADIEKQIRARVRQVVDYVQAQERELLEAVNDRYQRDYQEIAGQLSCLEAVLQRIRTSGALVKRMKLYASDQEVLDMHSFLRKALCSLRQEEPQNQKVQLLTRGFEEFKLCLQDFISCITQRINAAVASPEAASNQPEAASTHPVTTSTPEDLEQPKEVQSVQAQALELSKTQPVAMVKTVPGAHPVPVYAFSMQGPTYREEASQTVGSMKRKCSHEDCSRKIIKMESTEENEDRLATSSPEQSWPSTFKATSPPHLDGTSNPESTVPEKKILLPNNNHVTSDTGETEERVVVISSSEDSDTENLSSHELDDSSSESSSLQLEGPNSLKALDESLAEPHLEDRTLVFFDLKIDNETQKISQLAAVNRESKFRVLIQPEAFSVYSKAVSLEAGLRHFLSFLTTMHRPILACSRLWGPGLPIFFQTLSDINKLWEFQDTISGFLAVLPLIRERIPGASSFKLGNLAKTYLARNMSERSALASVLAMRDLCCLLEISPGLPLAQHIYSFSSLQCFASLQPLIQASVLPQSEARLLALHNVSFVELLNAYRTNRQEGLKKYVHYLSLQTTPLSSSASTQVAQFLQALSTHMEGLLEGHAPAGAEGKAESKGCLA
Put plainly: proximity ligation; Duolink in situ PLA on fixed, permeabilised neonatal mouse cardiac fibroblasts with anti-p53 and anti-PML antibodies; with or without TGF-β1.

The target of assay [2] is T1, promyelocytic leukemia protein (PML) (mouse (endogenous in neonatal mouse cardiac fibroblasts)). The assay is described as follows: condition: only cells pretreated with ginkgolic acid (GA, 10 μM), a SUMOylation inhibitor, before TGF-β1; proximity ligation; Duolink in situ PLA on fixed neonatal mouse cardiac fibroblasts pretreated with ginkgolic acid (10 μM, 1 h) before TGF-β1.

For assay [3] the target is unchanged. The assay is described as follows: co-IP; whole-cell RIPA lysates of neonatal mouse cardiac fibroblasts, with or without TGF-β1; immunoprecipitated with anti-PML or anti-p53 antibody, captured on magnetic protein A/G beads, immunoblot for the other protein.

As for p53 (from UniProt P02340 1-390), the results for the binding entry in assay [1], in assay [2] and in assay [3] were “binds”, “no binding” and “binds”, respectively.
